Results taken from PubChem BioAssay AID504467 (National Center for Advancing Translational Sciences (NCATS), 2011).
The whole screen tested about 330,000 compounds, of which about 7,700 (2.3%) were called active. Inconclusive results, whose numbers are uncertain, are shown with a selection of clear calls. Calls follow the shape of the dose curve; as a rule, active = well fitted inhibition curve with a large enough effect; inconclusive = small, poorly fitted or top-dose-only effect, or effect the other way; inactive = flat fitted curve, though single readings scatter. Where the call is inconclusive, the potency comes from a doubtful curve fit.

Test: qHTS screen for small molecules that inhibit ELG1-dependent DNA repair in human embryonic kidney (HEK293T) cells expressing luciferase-tagged ELG1; also: nearly all actives have a fitted effect of over 55% in size
Conditions: HEK293T ELG1-luciferase reporter, luminescence, 16 h, DNA damage induced by 5-fluorouridine; activity change, negative = inhibition: at 46.1 µM (top of the series)
Procedure, shortened: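 5-Fluorouridine DNA damage + compound/DMSO, 2,000 cells/well, 16 h, 37 °C/5% CO2. ONE-Glo, 30 min RT, luminescence. Readout = decrease in reporter signal.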
% is scaled to controls: 0 for no effect and ±100 for the full control effect; potency is read from the fitted curve at half-maximal effect.

Question: Which “activity change, negative = inhibition” value does the source give for `CCOc1ccc(/C=N/NC(=O)CN2CCCCC2)cc1OCC` here?
Answer: Its value is inactive: -4.32%.

Question: With `Cc1cccc(N2CCN(S(=O)(=O)c3cc4c(cc3Cl)NC(=O)CO4)CC2)c1C` as the molecule, how does the “activity change, negative = inhibition” value read?
Answer: The value was inactive: 9.35%.

Question: Which Potency does the source give for `OC(CNCc1ccco1)Cn1c2ccc(Br)cc2c2cc(Br)ccc21` (configuration not stated) here?
Answer: The Potency was inconclusive: 29.1 µM [inhibitor, single point].

Question: For `CCN(CC)CCN1C(=O)C(O)=C(C(=O)c2cccs2)C1c1ccc(C)o1` (configuration not stated), which Potency is on record?
Answer: The Potency was inconclusive: 20.6 µM [activator, partial curve, poor fit].

Question: With `COc1cc(C#Cc2c(-c3ccccc3OC)oc3ccccc23)cc(OC)c1` as the molecule, how does the Potency read?
Answer: The Potency was inconclusive: 11.6 µM [activator, partial curve, poor fit].

Question: For `Cc1ccc(NC(=O)Cn2cc(C(=O)C3CC3)c3ccccc32)cc1`, which “activity change, negative = inhibition” value is on record?
Answer: Its value is inactive: 13.3%.

Question: With `COc1ccc(NC(=O)Cn2nnc(C(=O)Nc3ccc(F)c(Cl)c3)c2N)cc1OC` as the molecule, how does the “activity change, negative = inhibition” value read?
Answer: The value was inactive: 5.69%.

Question: With `COc1cc(/C=C/C(=O)c2ccc(NS(=O)(=O)c3ccc(C)cc3)cc2)ccc1OC(F)F` as the molecule, how does the Potency read?
Answer: The Potency was inconclusive: 29.1 µM [inhibitor, single point].

Question: With `O=C(CCCN1C(=O)/C(=C\c2cccs2)SC1=S)Nc1ccc(C(=O)O)cc1` as the molecule, how does the “activity change, negative = inhibition” value read?
Answer: The value was inactive: 10.5%.

Question: With `O=C(CSc1nc2c([nH]c3ccccc32)c(=O)n1-c1ccccc1F)NCC1CCCO1` (configuration not stated) as the molecule, how does the Potency read?
Answer: Its Potency is inconclusive: 32.6 µM [inhibitor, single point].

Question: With `NC(=O)C1CCN(C(=S)c2ccc(-c3ccc(Br)cc3)o2)CC1` as the molecule, how does the Potency read?
Answer: Its Potency is inconclusive: 9.2 µM [activator, partial curve].

Question: For `Cc1nnc(-c2ccccc2)c(=O)n1/N=C/c1c(O)ccc2ccccc12`, which Potency is on record?
Answer: Its Potency is inconclusive: 18.4 µM [inhibitor, single point].

Question: With `COc1ccc(C2=NOC(C(=O)Nc3cc(C)on3)C2)cc1OC` (configuration not stated) as the molecule, how does the Potency read?
Answer: Its Potency is inconclusive: 1.16 µM [inhibitor, single point].

Question: With `N#Cc1nc(-c2ccccc2Cl)oc1N1CCCCC1` as the molecule, how does the Potency read?
Answer: The Potency was inconclusive: 16.4 µM [activator, partial curve, poor fit].

Question: For `CCCCOC(=O)Nc1ccc(S(=O)(=O)Nc2nc(C)cc(C)n2)cc1`, which “activity change, negative = inhibition” value is on record?
Answer: Its value is inactive: 0.0887%.

Question: Which Potency does the source give for `Cc1nn(Cc2ccc(Cl)cc2)c(C)c1NC(=O)C(c1ccccc1)c1ccccc1` here?
Answer: The Potency was inconclusive: 25.9 µM [inhibitor, single point].

Question: For `CCOC(=O)c1ccc(N2C(=O)c3n[nH]c(C)c3C2c2ccco2)cc1` (configuration not stated), which Potency is on record?
Answer: Its Potency is inconclusive: 20.6 µM [inhibitor, single point].

Question: With `COc1ccccc1/C=c1\sc2nc(-c3ccco3)nn2c1=O` as the molecule, how does the “activity change, negative = inhibition” value read?
Answer: The value was inactive: 10.2%.

Question: Which Potency does the source give for `Cc1cccn2cc(CCNC(=O)c3cccs3)nc12` here?
Answer: Its Potency is inconclusive: 3.66 µM [inhibitor, single point].

Question: Which Potency does the source give for `COc1cccc(NC(=O)Nc2ccc(Br)cn2)c1` here?
Answer: Its Potency is inconclusive: 10.3 µM [activator, partial curve].

Question: For `O=C(N/N=C/c1c[nH]c2ccccc12)c1ccccc1O`, which Potency is on record?
Answer: Its Potency is inconclusive: 13 µM [activator, partial curve].

Question: Which “activity change, negative = inhibition” value does the source give for `CCCOC(=O)C1=C(C)N(C)C(=O)NC1c1cc2c(cc1Br)OCO2` (configuration not stated) here?
Answer: Its value is inactive: -13.5%.

Question: Which Potency does the source give for `COc1ccc(NC(=O)CN2CCCN(S(=O)(=O)c3ccc(F)cc3)CC2)c(OC)c1` here?
Answer: Its Potency is inconclusive: 20.6 µM [inhibitor, single point].

Question: Which Potency does the source give for `N#CC1=C(SCC(=O)c2ccc(Cl)cc2)NC2=C(C(=O)CCC2)C1c1ccco1` (configuration not stated) here?
Answer: The Potency was inconclusive: 13 µM [inhibitor, partial curve, poor fit].

Question: For `Cc1cc(C)c2c(N)c(C(=O)c3ccc(Cl)cc3)sc2n1`, which Potency is on record?
Answer: Its Potency is inconclusive: 16.4 µM [activator, partial curve, poor fit].

Question: With `COc1cc(C2C3=C(CCCC3=O)Nc3[nH]n(-c4ccccc4)c(=O)c32)ccc1O` (configuration not stated) as the molecule, how does the Potency read?
Answer: Its Potency is inconclusive: 32.6 µM [activator, partial curve, poor fit].

Question: Which Potency does the source give for `O=C(c1cc(-c2cccc3ccccc23)nc2ccccc12)N1CCN(CCO)CC1` here?
Answer: Its Potency is active: 4.61 µM.

Question: For `CCC1CCCCN1C(=O)CCc1nnc(Cc2cc(OC)ccc2OC)o1` (configuration not stated), which Potency is on record?
Answer: Its Potency is inconclusive: 18.3 µM [activator, partial curve].

Question: With `CCOC(=O)c1cccc(N/C=C/C(=O)c2ccc(OC)c(OC)c2)c1` as the molecule, how does the Potency read?
Answer: Its Potency is inconclusive: 2.91 µM [activator, partial curve, poor fit].

Question: Which Potency does the source give for `Cc1ccc(C(=O)N/N=C2\CCc3ccccc32)c(C)c1` here?
Answer: Its Potency is inconclusive: 8.2 µM [activator, partial curve].

Question: Which Potency does the source give for `COc1ccc(C(=O)NNc2ccccc2)cc1` here?
Answer: Its Potency is inconclusive: 11.6 µM [activator, partial curve, poor fit].

Question: With `Cc1cc(C)nc(N(C#N)CN2C(=O)c3ccccc3C2=O)n1` as the molecule, how does the Potency read?
Answer: The Potency was inconclusive: 18.4 µM [activator, partial curve, poor fit].

Question: For `CCc1ccc(-c2csc(NC(=O)C3=COCCO3)n2)cc1`, which Potency is on record?
Answer: Its Potency is inconclusive: 4.61 µM [activator, full curve].

Question: Which Potency does the source give for `CC(=O)Nc1nc2c(C)cc(NC(=O)C3CCCCC3)cc2s1` here?
Answer: The Potency was inconclusive: 7.3 µM [activator, partial curve].

Question: With `O=C(CCN1C(=O)C2C3C=CC(C3)C2C1=O)N1CCN(c2cccc(Cl)c2)CC1` (configuration not stated) as the molecule, how does the “activity change, negative = inhibition” value read?
Answer: The value was inactive: -0.993%.

Question: For `CC(C)Sc1nc2ccccc2n1CC(=O)O`, which “activity change, negative = inhibition” value is on record?
Answer: The value was inactive: -13.4%.

Question: For `CC1CCCC(NC(=O)CCNC(=O)c2ccc([N+](=O)[O-])cc2)C1C` (configuration not stated), which “activity change, negative = inhibition” value is on record?
Answer: Its value is inactive: 1.17%.

Question: With `Cc1ccc(NC(=O)COc2coc(CN3CCc4ccccc4C3)cc2=O)cc1Cl` as the molecule, how does the “activity change, negative = inhibition” value read?
Answer: Its value is inactive: 4.56%.

Question: With `C1=CC2CC1CC2CN1CCN(c2ccccc2)CC1` (configuration not stated) as the molecule, how does the Potency read?
Answer: The Potency was inconclusive: 18.4 µM [activator, partial curve, poor fit].

Question: With `O=C(NNc1ccccn1)c1ccccc1CC[N+](=O)[O-]` as the molecule, how does the Potency read?
Answer: The Potency was inconclusive: 23.1 µM [activator, single point].

Question: With `COC(=O)c1nc(NC(=O)C(C)C)n[nH]1` as the molecule, how does the “activity change, negative = inhibition” value read?
Answer: Its value is inactive: 20.6%.

Question: For `Cn1c(NC(=O)C[n+]2cc(-c3ccccc3)n3c2CCC3)cc(=O)n(C)c1=O`, which Potency is on record?
Answer: Its Potency is inconclusive: 18.4 µM [activator, partial curve, poor fit].

Question: For `O=C(CNC(=O)C1CCCCC1)NC1CCCCC1`, which Potency is on record?
Answer: Its Potency is inconclusive: 35.5 µM [activator, single point].

Question: With `O=C(CSc1nnc(COc2ccc(Cl)cc2)n1Cc1ccco1)c1ccccc1F` as the molecule, how does the Potency read?
Answer: Its Potency is inconclusive: 29.1 µM [inhibitor, single point].

Question: For `CCOc1ccc(CC(=O)Nc2ccc(-c3ccc4nnc(C)n4n3)cc2)cc1`, which Potency is on record?
Answer: Its Potency is inconclusive: 14.6 µM [activator, partial curve].

Question: Which Potency does the source give for `Fc1ccccc1NC(=S)N/N=C/c1ccccc1Br` here?
Answer: The Potency was inconclusive: 10.3 µM [activator, partial curve].

Question: For `Cc1nc(C)c(-c2ccn(S(=O)(=O)c3ccc(Cl)cc3)n2)o1`, which Potency is on record?
Answer: Its Potency is inconclusive: 2.59 µM [inhibitor, partial curve, poor fit].

Question: For `COCCNc1nnc(SCC(=O)Nc2sc3c(c2C(=O)c2ccccc2)CCCC3)s1`, which Potency is on record?
Answer: The Potency was inconclusive: 23.1 µM [inhibitor, single point].

Question: With `O=C(NC1CCCC1)c1cc(-c2cccc(Cl)c2)on1` as the molecule, how does the Potency read?
Answer: The Potency was inconclusive: 20.6 µM [activator, partial curve].

Question: For `COc1ccc(NC(=O)c2cnc3sccn3c2=O)cc1`, which Potency is on record?
Answer: The Potency was inconclusive: 1.84 µM [activator, full curve].

Question: Which Potency does the source give for `CCOC(=O)c1cc2c(=O)n3ccccc3nc2n(Cc2ccco2)c1=NC(=O)c1cccnc1` here?
Answer: Its Potency is inconclusive: 20.6 µM [inhibitor, single point].

Question: For `CCOc1cc(C2NN=C(c3ccc(C)cc3)S2)ccc1O` (configuration not stated), which Potency is on record?
Answer: The Potency was inconclusive: 11.6 µM [activator, partial curve].

Question: Which “activity change, negative = inhibition” value does the source give for `COc1cccc(CNC2CCCC2)c1` here?
Answer: Its value is inactive: 1.3%.

Question: Which Potency does the source give for `CC(=O)Nc1cc(C)nn1-c1nc2ccccc2s1` here?
Answer: Its Potency is inconclusive: 14.6 µM [activator, partial curve].

Question: Which Potency does the source give for `CCOc1ccc(C(=O)N/N=C/c2ccccc2[N+](=O)[O-])cc1` here?
Answer: Its Potency is inconclusive: 2.59 µM [activator, full curve].

Question: With `Cn1c(CNc2nc(-c3ccccc3)cs2)nnc1SCC(=O)N1CCc2ccccc21` as the molecule, how does the Potency read?
Answer: Its Potency is inconclusive: 29.1 µM [inhibitor, single point].

Question: For `Cc1ccc(S(=O)(=O)N2CCN(c3ncnc4scc(-c5ccc(F)cc5)c34)CC2)cc1`, which Potency is on record?
Answer: The Potency was inconclusive: 1.3 µM [inhibitor, single point].

Question: Which Potency does the source give for `Nc1c(-c2ccccc2)n[nH]c1-c1ccccc1` here?
Answer: Its Potency is inconclusive: 13 µM [activator, partial curve, poor fit].

Question: Which Potency does the source give for `CN1N=C(C(=O)N2CCc3c([nH]c4ccccc34)C2c2ccccc2Cl)CCC1=O` (configuration not stated) here?
Answer: The Potency was inconclusive: 14.6 µM [activator, partial curve].

Question: Which Potency does the source give for `Cc1nn(CCCC(=O)Nc2ccc(Br)cc2F)c(C)c1[N+](=O)[O-]` here?
Answer: The Potency was inconclusive: 6.51 µM [inhibitor, single point].

Question: For `COc1ccc(NC(=S)c2ccccc2)cc1`, which Potency is on record?
Answer: The Potency was inconclusive: 11.6 µM [activator, partial curve].

Question: Which Potency does the source give for `N#C/C(=C/c1ccc(N2CCCCC2)o1)C(=O)NCCc1c[nH]c2ccccc12` here?
Answer: The Potency was inconclusive: 32.6 µM [inhibitor, single point].

Question: For `CC(C)NC(=O)C1CCN(C2CCN(C(=O)c3scc4c3CCCC4)CC2)CC1`, which “activity change, negative = inhibition” value is on record?
Answer: The value was inactive: 1.78%.

Question: Which Potency does the source give for `CN(CC1CCCO1)S(=O)(=O)c1ccc(C(=O)Nc2nc3cc4c(cc3s2)OCO4)cc1` (configuration not stated) here?
Answer: Its Potency is active: 2.59 µM.

Question: Which Potency does the source give for `C=CCSc1nnc(NC(=O)CCNC(=O)c2ccco2)s1` here?
Answer: Its Potency is inconclusive: 10.3 µM [activator, partial curve, poor fit].

Question: With `O=C(CSc1nc2ccccc2s1)CSc1nc2ccccc2s1` as the molecule, how does the “activity change, negative = inhibition” value read?
Answer: Its value is inactive: 6.84%.

Question: With `Nc1c(Cl)ncnc1N/N=C/c1ccc2ccccc2n1` as the molecule, how does the Potency read?
Answer: The Potency was inconclusive: 6.51 µM [activator, single point].
